Our source for the step yield values is patent US4337247A (Takeda Chemical Industries, Ltd., priority 1979, dated 1982).

The nature of the series: general procedure: solution-phase peptide synthesis; DCC/HONB or DCC/HOBt; Z-Tyr-ONB active ester.

As for BOC-Tyr-(D)-Met(O)-Gly-MePhe-NHNHCONH2, the step yield (late stage modification step) turned out to be 88%.

In the case of BOC-Tyr-(D)-Met-Gly-MePheNHNHCONH2, the step yield (coupling step) is 31%.

On to Z-Tyr-(D)-Ala-Gly-MePhe-NHNHCONH2, for which the step yield (coupling step) is 45.2%.
